Details: rabbit, 2 mg device for three days or 4 mg device for six days, ELISA

CCN(CC)CC(=O)Nc1c(C)cccc1C [lidocaine]
lidocaine/tissue concentration in bladder tissue and nearby genitourinary sites (kidneys, ureters, penile urethra): higher concentrations
lidocaine/tissue concentration in further sites (heart, spinal cord): lower concentrations
